{"source": "paper PMC12040169", "about": "(PLOS Biology, 2025)", "note": "Some of the results follow."}
{"system": "T1, CTL2-GFP (C. trachomatis L2/434/Bu, GFP-expressing)", "T1 construct": "L2/434/Bu, GFP-expressing", "set-up": "species or system HeLa; Intracellular C. trachomatis growth in HeLa cells, bulk GFP fluorescence relative to DMSO", "settings": "bulk GFP, single well; 28.5 h, 10 µM; inhibitor", "units": {"% of control remaining": "%"}}
{"smiles": "O=C(Cn1nnc2ccccc2c1=O)NC(Cc1ccccc1)c1ccccc1", "note": "(stereo not shown) [CBK296933]", "% of control remaining": 172.452}
{"smiles": "CC(Oc1cccc2ccccc12)C(=S)N(C)c1ccccc1", "note": "(stereo not shown) [CBK016158]", "% of control remaining": 49.663}
{"smiles": "c1ccc2nc(N3CCCC3)c(OC3CCNC3)nc2c1", "note": "(stereo not shown) [CBK115288]", "% of control remaining": 119.385}
{"smiles": "CCN(Cc1ccccc1)C(=O)NCCCN1CCN(C)CC1", "note": "[CBK155212]", "% of control remaining": 108.28}
{"smiles": "O=C1C[C@@H]2CCN(C(=O)NC3CCCCC3)C[C@@H]2CCN1CCN1CCNC1=O", "note": "[CBK288796]", "% of control remaining": 126.779}
{"smiles": "Cc1c(F)cccc1CN(CCCN)C(=O)Nc1ccccc1C(C)(C)C", "note": "[CBK034699C]", "% of control remaining": 160.147}
{"smiles": "COc1ccc(/C=C2\\S/C(=N\\Cc3ccccc3)N(Cc3ccccc3)C2=O)cc1C(=O)O", "note": "[CBK262715]", "% of control remaining": 113.847}
{"smiles": "O=C(Nc1ccc(S(=O)(=O)N2CCCCCC2)cc1)c1nc2ncccn2n1", "note": "[CBK266155]", "% of control remaining": 154.701}
{"smiles": "O=C(c1csnn1)N1Cc2ccccc2C1", "note": "[CBK200325]", "% of control remaining": 131.819}
{"smiles": "Cc1ccc(SCCN2CCN(C)CC2)cc1", "note": "[CBK269631C]", "% of control remaining": 123.615}
{"smiles": "CC1CCc2n[nH]c(C(=O)N3CCc4ncc(Cl)cc4C3)c2C1", "note": "(stereo not shown) [CBK284874]", "% of control remaining": 151.418}
{"smiles": "Cc1cccc(CC(=O)N2CCC(Cc3cccc(-c4cccs4)c3)(C(N)=O)CC2)c1", "note": "[CBK285752]", "% of control remaining": 171.731}
{"smiles": "CN1CCOCC(CNC(=O)c2ccc(-c3cnc(N)nc3)cc2)C1", "note": "(stereo not shown) [CBK307119]", "% of control remaining": 130.669}
{"smiles": "Cc1ccc(C2CCC(C(=O)O)C(C(=O)O)C2)cc1C", "note": "(stereo not shown) [CBK287184]", "% of control remaining": 114.71}
{"smiles": "COc1ccc(CCN(C)Cc2ccccn2)cc1OC", "note": "[CBK261912]", "% of control remaining": 100}
{"smiles": "CCOc1ccc(-c2cn(S(=O)(=O)c3cccc4nsnc34)nc2N)cc1", "note": "[CBK267883]", "% of control remaining": 80.0568}
{"smiles": "CC(Cn1cncc1-c1cnn(C)c1)Oc1ccccc1Cl", "note": "(stereo not shown) [CBK281737]", "% of control remaining": 115.354}
{"smiles": "Cc1cc(C)c(NC(=O)CSc2nnc(-c3cccnc3)s2)c([N+](=O)[O-])c1", "note": "[CBK268929]", "% of control remaining": 134.318}
{"smiles": "O=C1CCCc2nccc(-c3ccc(Cl)cc3)c21", "note": "[CBK287870]", "% of control remaining": 121.907}
{"smiles": "CN(Cc1ccncc1)C(=O)CCn1c(C(F)F)cc2cccnc21", "note": "[CBK285070]", "% of control remaining": 145.868}
{"smiles": "CCc1nc2ccc(C(=O)NCCN3CCNC3=O)cn2c1N(CCN(C)C)CC1CC1", "note": "[CBK145469]", "% of control remaining": 103.282}
{"smiles": "Cc1ccc(S(=O)(=O)N(CC(=O)Nc2cccnc2)c2ccc(C)c(C)c2)cc1", "note": "[CBK263974]", "% of control remaining": 129.778}
{"smiles": "CCNc1nc(NCc2ccccc2)nc(Oc2ccc(O)nn2)n1", "note": "[CBK266591]", "% of control remaining": 133.257}
{"smiles": "COc1ccc2cnc(C3CCCN(C(=O)C4CC4)C3)cc2c1C", "note": "(stereo not shown) [CBK284716]", "% of control remaining": 128.985}
{"smiles": "O=C(C1CC2C=CC1C21CC1)N1CCCC(c2nc3ccccc3[nH]2)C1", "note": "(stereo not shown) [CBK281513]", "% of control remaining": 122.588}
{"smiles": "Cc1cccc(-c2nc(C(N)=O)c3[nH]c(=O)n(-c4ccc(F)cc4)c3n2)c1", "note": "[CBK287632]", "% of control remaining": 105.671}
{"smiles": "CC(Sc1nc2ccccc2c(=O)n1C)C(=O)N1CCOCC1", "note": "(stereo not shown) [CBK305031]", "% of control remaining": 143.455}
{"smiles": "O=S(=O)(NCc1cccnc1)c1ccc(Cl)c2ccccc12", "note": "[CBK264008]", "% of control remaining": 99.03}
{"smiles": "Fc1cc(Br)ccc1-c1cnn(-c2ccccc2)n1", "note": "[CBK112925]", "% of control remaining": 85.3888}
{"smiles": "Cc1nc(C)n(CC2CCCN(Cc3cn4c(C)cccc4n3)C2)n1", "note": "(stereo not shown) [CBK304007]", "% of control remaining": 103.227}
{"smiles": "COCCn1nc(C(=O)N(C)Cc2nc3ccccc3s2)ccc1=O", "note": "[CBK305338]", "% of control remaining": 100.123}
{"smiles": "O=C(COc1ccc([N+](=O)[O-])cc1)Nc1cccc2nsnc12", "note": "[CBK263808]", "% of control remaining": 110.595}
{"smiles": "CC(=O)N1CCN(C(=O)C[C@@H]2C[C@@H](C(C)C)[C@H](CC#N)C=C2C)CC1", "note": "[CBK289214]", "% of control remaining": 117.782}
{"smiles": "CCC(NC(=O)CCc1cccnc1)c1cn2cccnc2n1", "note": "(stereo not shown) [CBK307247]", "% of control remaining": 137.955}
{"smiles": "CC(C)(CN1CCCC1)NC(=O)c1cc(Cl)c(Cl)cc1C(=O)O", "note": "[CBK287141]", "% of control remaining": 161.913}
{"smiles": "Cc1cc(CN2CCN(S(=O)(=O)c3ccc(C(F)(F)F)cc3Cl)CC2)cc(C)c1O", "note": "[CBK063074]", "% of control remaining": 104.669}
{"smiles": "Cc1cc(=O)c(C#N)c(C)[nH]1", "note": "[CBK023326]", "% of control remaining": 105.984}
{"smiles": "O=C(O)c1cccc(NS(=O)(=O)c2ccc(Br)cc2F)c1", "note": "[CBK155691]", "% of control remaining": 91.7529}
{"smiles": "OCCN1CC2(CCN(CCc3c[nH]c4ccccc34)CC2)c2ccccc21", "note": "[CBK144607T]", "% of control remaining": 102.022}
{"smiles": "Cc1ccc(-c2c(N3CCCC3)n[nH]c2C2CC2)cc1", "note": "[CBK288192]", "% of control remaining": 91.2966}
{"smiles": "Cn1c(SCC(=O)Nc2c(F)cc(F)cc2Br)nnc1-c1cccnc1", "note": "[CBK267583]", "% of control remaining": 119.041}
{"smiles": "Cc1cc(C)c2c(CC(=O)N(C)CCN(C)C)c(C)[nH]c2c1", "note": "[CBK282732]", "% of control remaining": 135.947}
{"smiles": "O=C(NCc1cccs1)c1ccc(-c2ccoc2)nc1", "note": "[CBK156269]", "% of control remaining": 106.092}
{"smiles": "O=C(O)c1ccc(N2C(=O)CC(N3CCN(C/C=C/c4ccccc4)CC3)C2=O)cc1", "note": "(stereo not shown) [CBK261402]", "% of control remaining": 100}
{"smiles": "Cc1c(C(=O)O)sc2nc3c(Cl)cc(C(=O)c4ccccc4O)cn3c(=O)c12", "note": "[CBK295619]", "% of control remaining": 145.477}
{"smiles": "Cc1noc(C)c1S(=O)(=O)Nc1ccsc1C(=O)Nc1ccc(F)cc1", "note": "[CBK004604]", "% of control remaining": 90.1441}
{"smiles": "O=C(Nc1ccc(C(F)(F)F)cc1)C1CCCS1", "note": "(stereo not shown) [CBK006142]", "% of control remaining": 132.428}
{"smiles": "CC(=O)c1cc(C)c(C)cc1N", "note": "[CBK016322]", "% of control remaining": 123.005}
{"smiles": "CCCn1nc(C)c(-c2cncn2CCc2c(C)nn(C)c2C)c1C", "note": "[CBK281475]", "% of control remaining": 118.76}
{"smiles": "Cc1ccc(C(=O)NC[C@H]2O[C@@H](CC(=O)N3CCOCC3)[C@H](O)[C@@H]2O)cc1", "note": "[CBK288925]", "% of control remaining": 108.763}
{"smiles": "CC(=O)Nc1ccc(S(=O)(=O)Nc2nnc(C(C)(C)C)s2)cc1", "note": "[CBK045499]", "% of control remaining": 96.4657}
{"smiles": "Cc1cccc(NC(=O)Cn2cc(C(=O)COc3ccccc3)c3ccccc32)c1", "note": "[CBK268654]", "% of control remaining": 122.112}
{"smiles": "COc1cc([N+](=O)[O-])ccc1NC(=O)NCc1ccc(C(=O)O)cc1", "note": "[CBK267092]", "% of control remaining": 163.487}
{"smiles": "CC(C)(C)NS(=O)(=O)c1ccc(NC(=O)c2cc(-c3ccccn3)nc3c(Cl)cccc23)cc1", "note": "[CBK267783]", "% of control remaining": 110.592}
{"smiles": "CCOC(=O)c1cn(CCSCC)cc(Oc2ccccc2)c1=O", "note": "[CBK307244]", "% of control remaining": 85.7574}
{"smiles": "COc1ccccc1Cc1cccc(C2CCCN2C(=O)CCc2ccc(F)cc2)n1", "note": "(stereo not shown) [CBK286238]", "% of control remaining": 103.924}
{"smiles": "CC(Oc1ccccc1)C(=O)Nc1nn(Cc2ccc(S(=O)(=O)N3CCCC3)cc2)c2ccccc12", "note": "(stereo not shown) [CBK061595]", "% of control remaining": 100}
{"smiles": "COc1ccc(C(=O)Nc2ccc(S(=O)(=O)N3CCN(C)CC3)cc2)cc1[N+](=O)[O-]", "note": "[CBK268140]", "% of control remaining": 106.526}
{"smiles": "CCOC(=O)c1cc2cc(NC(=O)N(CCO)C3CC3)ccc2s1", "note": "[CBK306007]", "% of control remaining": 130.372}
{"smiles": "NC(=O)COc1ccc(C2CC(=O)Nc3c(-c4cccc(F)c4)csc32)cc1", "note": "(stereo not shown) [CBK294441]", "% of control remaining": 125.364}
{"smiles": "CN(C)CCSc1cncc(N2CCCC2)n1", "note": "[CBK105294]", "% of control remaining": 119.167}
{"smiles": "Cc1nn(C)c(Cl)c1S(=O)(=O)N1CCN(C)CC1", "note": "[CBK062426]", "% of control remaining": 117.303}
{"smiles": "O=C(c1nccs1)C1CCN(C(=O)Cc2ccsc2)CC1", "note": "[CBK284176]", "% of control remaining": 90.9104}
{"smiles": "COc1ccc(NC(=O)N2CC[C@H]3CC(=O)N(CCN4CCNC4=O)CC[C@H]3C2)cc1", "note": "[CBK288797]", "% of control remaining": 140.072}
{"smiles": "CC(CCc1ccccc1)NC(=O)c1ccccc1C(=O)O", "note": "(stereo not shown) [CBK286940]", "% of control remaining": 140.056}
{"smiles": "CCn1c2ccccc2n2c(SCC(=O)O)nnc12", "note": "[CBK266869]", "% of control remaining": 150.713}
{"smiles": "CSc1ccc(CNC(=O)c2ccc(Cl)cc2)s1", "note": "[CBK057705]", "% of control remaining": 141.532}
{"smiles": "CN1CCN(C(C(=O)O)c2cn(CCC(=O)O)c3ccc(Br)cc23)CC1", "note": "(stereo not shown) [CBK286698]", "% of control remaining": 110.313}
{"smiles": "O=C(O)/C=C/c1cn([C@@H]2O[C@H](CO)[C@H](O)C2O)c(=O)[nH]c1=O", "note": "(stereo partly shown) [CBK201270]", "% of control remaining": 171.62}
{"smiles": "COCCn1c(CO)nnc1[C@H]1C[C@@H](NC(=O)c2cc(C)ccc2Cl)C1", "note": "[CBK306564]", "% of control remaining": 153.154}
{"smiles": "CC(C)Nc1cccnc1N1CCN(C(=O)c2cc3cc(NC(=O)N4CCOCC4)ccc3[nH]2)CC1", "note": "[CBK007872]", "% of control remaining": 121.408}
{"smiles": "NC(=S)N/N=C/c1c[nH]nc1-c1ccccc1", "note": "[CBK009705]", "% of control remaining": 122.109}
{"smiles": "CN(Cc1ccc(Br)cc1Cl)C(=O)c1cn[nH]c1C1CCNC1", "note": "(stereo not shown) [CBK304785]", "% of control remaining": 87.2494}
{"smiles": "COc1ccc(CNc2cc(-c3cccc(Cl)c3)nc3ccnn23)cc1", "note": "[CBK037037]", "% of control remaining": 119.901}
{"smiles": "CCc1noc(C)c1C(=O)NC(C)c1cc2ccccc2o1", "note": "(stereo not shown) [CBK247065]", "% of control remaining": 117.071}
{"smiles": "Cc1c(CN(C)CC2CCN(C)C2)cnn1Cc1ccccc1", "note": "(stereo not shown) [CBK282616]", "% of control remaining": 138.279}
{"smiles": "O=c1[nH]c(CNc2ccccc2)nc2ccccc12", "note": "[CBK288038]", "% of control remaining": 111.083}
{"smiles": "CCCC/C=C/c1nccnc1NCc1ccco1", "note": "[CBK037116]", "% of control remaining": 98.0189}
{"smiles": "COc1cc(C2SCC(=O)Nc3c2c(-c2ccccc2)nn3-c2ccccc2)cc(OC)c1OC", "note": "(stereo not shown) [CBK265025]", "% of control remaining": 129.955}
